PubChem BioAssay AID504795, Drosophila RNAi Screening Center, 2011

Screen: 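Knock-downs causing abnormal branching, bundling, swelling or growth of cultured neurons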 (primary screen)
Cells: primary Drosophila neurons and glia
Reagent: long dsRNA against Drosophila genes, 250 ng dsRNA per well
Timing: one week
Measured: 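Descriptive morphology terms assigned by visual inspection of live automated images of GFP-marked cells, taken one week after adding 250 ng dsRNA per well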
This is not the whole library: the list holds selected reagents. 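Every listed dsRNA shows some phenotype; how reagents were selected for listing is not stated.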 The numbers tell different reagents against one gene apart. Names joined by + are all predicted targets of the reagent.

no.	gene knocked down	dsRNA no.	phenotype seen, replicate 1
1	NimB2 (GeneID 260645)	1	too many neurite branches
2	Takl2 (GeneID 42692)	1	abnormal cell clusters
3	RpL31 (GeneID 35988)	1	weaker green signal
4	tgy (GeneID 32896)	1	reduced axon outgrowth
5	CG14762 (GeneID 35768)	1	axon bundles split apart
6	CG16736 (GeneID 41101)	1	too many neurite branches
7	Muc68Ca (GeneID 2768980)	1	weaker green signal
8	Scr (GeneID 40833)	1	sheet-like cell extensions
9	Snx3 (GeneID 41551)	1	abnormal cell clusters
10	CG14052 (GeneID 31203)	1	axon bundles split apart
11	CG33257 (GeneID 2768960)	1	reduced axon outgrowth
12	CG31781 (retired record) (GeneID 35023)	1	axon bundles split apart
13	CG14397 (GeneID 8674022)	1	cell fragments present
14	Deaf1 (GeneID 40164)	1	fewer cells
15	CG14417 (GeneID 31274)	1	abnormal cell clusters
16	tinc (GeneID 42148)	1	axon bundles split apart
17	tinc (GeneID 42148)	2	reduced axon outgrowth
18	CG17508 (GeneID 49893)	1	too many neurite branches
19	CG15753 (retired record) (GeneID 32306)	1	too many neurite branches
20	ich (GeneID 41069)	1	too many neurite branches
21	Sema1b (GeneID 37007)	1	abnormal cell clusters
22	CG13084 (GeneID 35229)	1	abnormal cell clusters
23	Cad96Cb (GeneID 43033)	1	too many neurite branches
24	mol (GeneID 34872)	1	sheet-like cell extensions
25	timeout (GeneID 41615)	1	sheet-like cell extensions
26	RpL10Ab (GeneID 39338)	1	too many neurite branches
27	Argl + CG9515	1	reduced axon outgrowth
28	CG12011 (GeneID 38211)	1	reduced axon outgrowth
29	CG8750 (GeneID 50285)	1	axon bundles split apart
30	Parp1 (GeneID 3355109)	1	sheet-like cell extensions
31	CG42784 (GeneID 326165)	1	too many neurite branches
32	Nsf2 (GeneID 41694)	1	too many neurite branches
33	CG14200 (GeneID 32939)	1	sheet-like cell extensions
34	Prosalpha1R + Prosalpha1	1	weaker green signal
35	CG42319 (GeneID 36473)	1	beaded; swollen axons
36	CG6923 (GeneID 41420)	1	too many neurite branches
37	Smvt (GeneID 43744)	1	too many neurite branches
38	Cka (GeneID 34096)	1	axon bundles split apart

Reformatted: entries from further up.
{"gene knocked down": "CG17508 (GeneID 49893)", "dsRNA no.": 1, "phenotype seen, replicate 1": "too many neurite branches"}
{"gene knocked down": "CG15753 (retired record) (GeneID 32306)", "dsRNA no.": 1, "phenotype seen, replicate 1": "too many neurite branches"}
{"gene knocked down": "ich (GeneID 41069)", "dsRNA no.": 1, "phenotype seen, replicate 1": "too many neurite branches"}
{"gene knocked down": "Sema1b (GeneID 37007)", "dsRNA no.": 1, "phenotype seen, replicate 1": "abnormal cell clusters"}
{"gene knocked down": "CG13084 (GeneID 35229)", "dsRNA no.": 1, "phenotype seen, replicate 1": "abnormal cell clusters"}
{"gene knocked down": "Cad96Cb (GeneID 43033)", "dsRNA no.": 1, "phenotype seen, replicate 1": "too many neurite branches"}
{"gene knocked down": "mol (GeneID 34872)", "dsRNA no.": 1, "phenotype seen, replicate 1": "sheet-like cell extensions"}
{"gene knocked down": "timeout (GeneID 41615)", "dsRNA no.": 1, "phenotype seen, replicate 1": "sheet-like cell extensions"}

The list goes on:
no.	gene knocked down	dsRNA no.	phenotype seen, replicate 1
39	CG3335 (GeneID 39119)	1	sheet-like cell extensions
40	gukh (GeneID 53563)	1	reduced axon outgrowth
41	gukh (GeneID 53563)	2	fewer cells
42	CG17167 (GeneID 3354991)	1	abnormal cell clusters
43	CG7368 (GeneID 39301)	1	cell fragments present
44	dup (GeneID 47121)	1	axon bundles split apart
45	alphaTub84D (GeneID 40904)	1	reduced axon outgrowth
46	Mitf (GeneID 3885647)	1	abnormal cell clusters
47	CG32694 (GeneID 31933)	1	axon bundles split apart
48	Tep5Psi (GeneID 35250)	1	too many neurite branches
49	Tep5Psi (GeneID 35250)	2	too many neurite branches
50	Naa30B (GeneID 317976)	1	beaded; swollen axons
51	CG10347 (GeneID 32141)	1	abnormal cell clusters
52	RpS15Ab + RpS15Aa	1	beaded; swollen axons
53	RpS15Ab + RpS15Aa	2	too many neurite branches
54	modSP (GeneID 42032)	1	too many neurite branches
55	CG15219 (GeneID 49992)	1	reduced axon outgrowth
56	ND-MWFE (GeneID 5740593)	1	axon bundles split apart
57	Pex10 (GeneID 38182)	1	reduced axon outgrowth
58	ect (GeneID 44135)	1	axon bundles split apart
59	ect (GeneID 44135)	2	sheet-like cell extensions
60	CG11537 (GeneID 38373)	1	too many neurite branches
61	Polr2A (GeneID 32100)	1	reduced axon outgrowth
62	ave (GeneID 246638)	1	too many neurite branches
63	CG14907 + Mettl4	1	sheet-like cell extensions
64	Sap-r (GeneID 43662)	1	reduced axon outgrowth
65	metro (GeneID 36176)	1	axon bundles split apart
66	TSG101 (GeneID 39881)	1	sheet-like cell extensions
67	eIF3a (GeneID 40563)	1	reduced axon outgrowth
68	5-HT1B (GeneID 37191)	1	too many neurite branches
69	ND-B15 (GeneID 36640)	1	sheet-like cell extensions
70	BomT2 (GeneID 50208)	1	axon bundles split apart
71	lili (GeneID 42956)	1	too many neurite branches
72	Nepl16 (GeneID 43014)	1	reduced axon outgrowth
73	CG30467 (GeneID 36719)	1	reduced axon outgrowth
74	wrd (GeneID 42169)	1	too many neurite branches
75	RapGAP1 (GeneID 34032)	1	too many neurite branches
76	CG4734 (GeneID 36477)	1	fewer cells
77	htt (GeneID 43392)	1	abnormal cell clusters
78	nvy (GeneID 37886)	1	axon bundles split apart
79	alphaSnap (GeneID 40233)	1	reduced axon outgrowth
80	CG11247 (GeneID 40414)	1	reduced axon outgrowth
81	CG17002 (GeneID 35610)	1	axon bundles split apart
82	RpL32 (GeneID 43573)	1	too many neurite branches
83	CG4611 (GeneID 38601)	1	too many neurite branches
84	CG14654 (retired record) (GeneID 40592)	1	axon bundles split apart
85	Spps (GeneID 42882)	1	axon bundles split apart
86	CG11294 (GeneID 31807)	1	sheet-like cell extensions
87	Rpn1 (GeneID 40174)	1	axon bundles split apart
88	brwl (GeneID 34275)	1	abnormal cell clusters
89	brwl (GeneID 34275)	2	sheet-like cell extensions
90	CG6628 (GeneID 39183)	1	too many neurite branches
91	Psc (GeneID 36431)	1	axon bundles split apart
92	Eip63E (GeneID 38433)	1	abnormal cell clusters
93	CG14492 (GeneID 37045)	1	too many neurite branches
94	Ptp36E (GeneID 35091)	1	too many neurite branches
95	CG42249 (GeneID 32043)	1	axon bundles split apart
96	CG9973 (retired record) (GeneID 38349)	1	axon bundles split apart
97	CG7329 (GeneID 34457)	1	fewer cells
98	CG10853 (GeneID 38465)	1	too many neurite branches
99	Polr2F (GeneID 48312)	1	too many neurite branches
100	Dtg (GeneID 41558)	1	sheet-like cell extensions
101	bdg (GeneID 36747)	1	too many neurite branches
102	ZnT41F (GeneID 35513)	1	axon bundles split apart
103	CG1545 (GeneID 32036)	1	fewer cells
104	bun (GeneID 34665)	1	axon bundles split apart
105	tub (GeneID 40554)	1	axon bundles split apart
106	Sfp53D (GeneID 8673983)	1	axon bundles split apart
107	Vinc (GeneID 31201)	1	cell fragments present
108	Cyp6a22 (GeneID 49847)	1	abnormal cell clusters
109	dor (GeneID 31118)	1	axon bundles split apart
